Source: article PMC11617674, “The activity of the ribonucleotide monophosphatase UmpH is controlled by interaction with the GlnK signaling protein in Escherichia coli” (The Journal of Biological Chemistry, 2024)
Results are given in words; binding and its absence hold for the method and conditions named. Some entries that bind do so weakly or less than the wild type. Where a sequence is shown, tags or fusion partners need not be part of it.

The chains behind the UniProt entries cited, without tags or fusion partners.
UniProt P0A9Z1: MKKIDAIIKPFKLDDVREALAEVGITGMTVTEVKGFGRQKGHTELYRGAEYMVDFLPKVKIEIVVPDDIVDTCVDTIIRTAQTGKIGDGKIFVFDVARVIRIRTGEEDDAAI

How the values were obtained:
[1] = target: T1, His-GlnZΔloop (A. brasilense GlnZ with a deletion of the T-loop, GlnZΔ42–54) (Azospirillum brasilense) (UniProt P70731); test: pull-down; as a2 but with 1 mM ATP and 1 mM 2-OG combined (5 mM MgCl2); both purified
T1 sequence: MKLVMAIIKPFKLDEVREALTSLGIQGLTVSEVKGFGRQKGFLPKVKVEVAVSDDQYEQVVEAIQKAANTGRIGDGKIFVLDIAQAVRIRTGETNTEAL

[2] = target: His-GlnB (E. coli PII signaling protein GlnB, N-terminal His tag) (E. coli) (UniProt P0A9Z1); test: pull-down; His-PII on Ni2+ magnetic beads, untagged UmpH; 50 mM Tris-HCl pH 8.0, 0.1 M NaCl, 5 mM MgCl2, 10% glycerol, 20 mM imidazole; room temperature; without nucleotides or with ATP or ADP (effectors as indicated); SDS-PAGE, Coomassie; both purified
[3] = target: His-GlnZ from Azospirillum brasilense (Azospirillum brasilense) (UniProt P70731); test: as above
[4] = target: T1, His-GlnZΔloop (A. brasilense GlnZ with a deletion of the T-loop, GlnZΔ42–54) (Azospirillum brasilense); test: as above

B1: UmpH (ribonucleotide monophosphatase), untagged recombinant (enzyme, UniProt P0AF24 1-250)
chain: MTIKNVICDIDGVLMHDNVAVPGAAEFLHGIMDKGLPLVLLTNYPSQTGQDLANRFATAGVDVPDSVFYTSAMATADFLRRQEGKKAYVVGEGALIHELYKAGFTITDVNPDFVIVGETRSYNWDMMHKAAYFVANGARFIATNPDTHGRGFYPACGALCAGIEKISGRKPFYVGKPSPWIIRAALNKMQAHSEETVIVGDNLRTDILAGFQAGLETILVLSGVSSLDDIDSMPFRPSWIYPSVAEIDVI
- binding [1]: binds
- binding [2]: no binding
- binding [3]: binds
- binding [4]: binds
